Assay results from PubChem BioAssay AID2073 (Sanford-Burnham Center for Chemical Genomics, 2009).
Hit rate of the full screen: of about 290,000 compounds, about 570 (0.2%) were called active. The shares of active, inactive and inconclusive entries below differ from those in the screen. Rule as the data show it: active = inhibition mostly above about 51% (no sharp cut-off); inconclusive = no clear call, values can overlap the other calls; inactive = mostly below about 53%.

The chains behind the UniProt entries cited, without tags or fusion partners.
UniProt Q00975, whole entry, looked up: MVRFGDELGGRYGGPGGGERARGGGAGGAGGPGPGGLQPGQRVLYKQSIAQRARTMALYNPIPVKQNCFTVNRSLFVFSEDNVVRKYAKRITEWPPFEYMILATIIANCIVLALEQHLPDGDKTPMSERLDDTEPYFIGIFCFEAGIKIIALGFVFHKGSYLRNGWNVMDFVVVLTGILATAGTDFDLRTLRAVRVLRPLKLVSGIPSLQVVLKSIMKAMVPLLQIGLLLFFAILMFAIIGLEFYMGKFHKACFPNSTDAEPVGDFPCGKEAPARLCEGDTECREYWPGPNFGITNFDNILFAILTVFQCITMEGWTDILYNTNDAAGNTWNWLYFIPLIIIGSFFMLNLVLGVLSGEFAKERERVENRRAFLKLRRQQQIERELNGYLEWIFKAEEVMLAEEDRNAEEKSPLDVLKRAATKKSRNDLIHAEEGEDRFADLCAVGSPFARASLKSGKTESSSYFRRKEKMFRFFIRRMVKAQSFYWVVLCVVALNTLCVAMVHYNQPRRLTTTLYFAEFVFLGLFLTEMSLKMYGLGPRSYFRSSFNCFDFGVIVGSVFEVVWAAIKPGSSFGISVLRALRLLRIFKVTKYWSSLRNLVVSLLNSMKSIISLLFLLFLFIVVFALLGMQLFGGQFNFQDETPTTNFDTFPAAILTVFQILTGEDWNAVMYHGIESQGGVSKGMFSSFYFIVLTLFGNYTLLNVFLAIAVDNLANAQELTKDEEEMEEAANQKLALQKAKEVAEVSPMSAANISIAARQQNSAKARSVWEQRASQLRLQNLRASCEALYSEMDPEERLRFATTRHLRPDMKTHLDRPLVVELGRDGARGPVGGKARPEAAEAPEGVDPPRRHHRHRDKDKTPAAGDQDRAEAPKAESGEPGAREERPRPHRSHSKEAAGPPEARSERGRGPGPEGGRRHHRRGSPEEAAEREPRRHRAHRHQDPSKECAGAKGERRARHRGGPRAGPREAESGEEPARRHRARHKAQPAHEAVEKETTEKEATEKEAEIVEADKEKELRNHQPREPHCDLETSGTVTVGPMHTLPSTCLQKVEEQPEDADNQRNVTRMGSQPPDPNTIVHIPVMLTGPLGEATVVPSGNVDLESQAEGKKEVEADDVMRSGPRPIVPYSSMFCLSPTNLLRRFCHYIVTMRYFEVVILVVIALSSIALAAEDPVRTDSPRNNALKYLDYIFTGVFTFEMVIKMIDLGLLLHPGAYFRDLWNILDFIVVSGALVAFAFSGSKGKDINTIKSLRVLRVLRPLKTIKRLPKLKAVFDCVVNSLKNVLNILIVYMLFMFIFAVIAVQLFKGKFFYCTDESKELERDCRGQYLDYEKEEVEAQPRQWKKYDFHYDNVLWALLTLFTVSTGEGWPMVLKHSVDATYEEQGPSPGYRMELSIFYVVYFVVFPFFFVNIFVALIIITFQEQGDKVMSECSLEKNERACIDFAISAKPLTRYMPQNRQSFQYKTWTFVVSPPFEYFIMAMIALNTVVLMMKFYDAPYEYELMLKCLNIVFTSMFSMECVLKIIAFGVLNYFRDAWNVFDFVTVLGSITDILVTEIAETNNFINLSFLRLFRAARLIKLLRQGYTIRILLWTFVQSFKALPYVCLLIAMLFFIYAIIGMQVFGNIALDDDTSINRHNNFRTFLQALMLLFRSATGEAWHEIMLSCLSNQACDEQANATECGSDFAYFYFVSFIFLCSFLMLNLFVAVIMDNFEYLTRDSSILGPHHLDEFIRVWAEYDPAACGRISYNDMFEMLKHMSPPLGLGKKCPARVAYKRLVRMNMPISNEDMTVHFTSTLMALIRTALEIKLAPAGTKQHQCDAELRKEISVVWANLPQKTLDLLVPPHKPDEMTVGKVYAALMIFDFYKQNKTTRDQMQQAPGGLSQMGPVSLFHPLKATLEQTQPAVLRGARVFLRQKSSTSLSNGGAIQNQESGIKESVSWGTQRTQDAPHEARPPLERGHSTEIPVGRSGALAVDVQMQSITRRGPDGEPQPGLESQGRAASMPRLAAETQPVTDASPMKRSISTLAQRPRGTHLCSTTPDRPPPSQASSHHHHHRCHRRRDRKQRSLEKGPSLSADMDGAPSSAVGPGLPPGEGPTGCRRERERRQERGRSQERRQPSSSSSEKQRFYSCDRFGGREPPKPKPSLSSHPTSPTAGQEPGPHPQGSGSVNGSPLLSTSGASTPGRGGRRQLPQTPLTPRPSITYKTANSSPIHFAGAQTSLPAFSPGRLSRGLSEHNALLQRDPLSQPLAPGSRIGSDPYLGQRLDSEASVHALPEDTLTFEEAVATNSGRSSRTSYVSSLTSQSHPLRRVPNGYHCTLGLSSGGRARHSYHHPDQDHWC

biological target: Voltage-dependent N-type calcium channel subunit alpha-1B (Homo sapiens) (UniProt Q00975); experiment: disruptors of CaV2.2 binding to Mint1 – biochemical, HTRF (AID 2073); conditions: HTRF protein-protein interaction, Mint1-CaV2.2; at 20 µM; stronger effect = higher value

Which inhibition does the source give for `Cc1ccc2nc(-c3ccccc3)cc(C(=O)NCCCn3ccnc3)c2c1` here?
The inhibition was inconclusive: 52.7%.

How did the inhibition turn out when `COc1ccc(C(=O)c2coc3ccc(O)c(CN(C)C)c23)cc1` was run?
The inhibition was inconclusive: 98.9%.

Which inhibition does the source give for `CCOc1ccc(C(=O)N2CCN(c3cccc(Cl)c3)CC2)cc1` here?
The inhibition was inconclusive: 58.2%.

How did the inhibition turn out when `Cn1c(=O)c(C(=O)COC(=O)c2cc(-c3ccco3)nc3ccccc23)c(N)n(Cc2ccccc2)c1=O` was run?
Its inhibition is active: 55.8%.

With `Cc1ccccc1/C=C1\SC(=S)N(/N=C/c2cc([N+](=O)[O-])ccc2O)C1=O` as the compound, how does the inhibition read?
The inhibition was inactive: 5.4%.

How did the inhibition turn out when `Cc1cc(NC(=O)CSc2nc3c(c(=O)n2Cc2ccccc2)SC(C)C3)no1` (configuration not stated) was run?
Its inhibition is inconclusive: 81%.

For `Cc1ccc(S(=O)(=O)N(C)C)cc1NC(=O)COC(=O)CCC(=O)c1cccs1`, which inhibition is on record?
The inhibition was inconclusive: 65.1%.

How did the inhibition turn out when `CCOc1ccccc1NC(=O)N1CCCC(c2nc(-c3ccc(C)o3)no2)C1` (configuration not stated) was run?
The inhibition was inconclusive: 51.2%.

`O=C(NC(=S)Nc1ccc(S(=O)(=O)Nc2nccs2)cc1)c1cccc(F)c1` was tested. Which inhibition did it give?
Its inhibition is inconclusive: 55.2%.

How did the inhibition turn out when `CCn1nnc(-c2ccccc2NC(=O)c2ccc(-n3cnnn3)cc2)n1` was run?
The inhibition was inconclusive: 52.9%.

How did the inhibition turn out when `CCOC(=O)C1C(=O)NC(SC)=C(C#N)C1c1ccccc1F` (configuration not stated) was run?
The inhibition was inactive: -5.1%.

With `CCCn1c(O)c(C=Nc2ccccc2)sc1=S` as the compound, how does the inhibition read?
The inhibition was inactive: 35.6%.

Which inhibition does the source give for `CCOc1ccc(S(=O)(=O)NCc2cccnc2)cc1C(C)C` here?
The inhibition was inactive: 1.4%.

How did the inhibition turn out when `CCCCOc1ccc(Cl)cc1CSc1nnc(C)n1N` was run?
The inhibition was inactive: -4.8%.

How did the inhibition turn out when `NC(=O)c1sc(=S)n2c1[nH]c(=O)c1sccc12` was run?
The inhibition was active: 51.8%.

With `CC(C)CC(O)(c1ccccc1)C(CN1CCOCC1)c1ccccc1` (configuration not stated) as the compound, how does the inhibition read?
The inhibition was inconclusive: 90.7%.

Which inhibition does the source give for `COCCSc1ccccc1C(=O)N1CCN(Cc2ccccc2)CC1` here?
Its inhibition is inconclusive: 54.5%.

Which inhibition does the source give for `C=CCc1ccccc1OCC(O)CN(CC)CC` (configuration not stated) here?
The inhibition was inconclusive: 60.3%.

For `CN(Cc1ccccc1F)C(=O)c1ccccc1Sc1ccccc1C#N`, which inhibition is on record?
Its inhibition is inactive: -14.5%.

For `Cc1c(C(=O)N2CCCC2)sc(NC(=O)c2ccccc2)c1C#N`, which inhibition is on record?
The inhibition was inconclusive: 63%.

With `CN(Cc1c(C(=O)N2CCCCCCC2)nc2ccc(Cl)cn12)C1CCOC1` (configuration not stated) as the compound, how does the inhibition read?
The inhibition was inactive: -10%.

Which inhibition does the source give for `S=C(Nc1ccc2nc(-c3ccccn3)c(-c3ccccn3)nc2c1)N1CCCCC1` here?
Its inhibition is inconclusive: 51.2%.

For `O=C(c1ccco1)C(O)c1ccco1` (configuration not stated), which inhibition is on record?
The inhibition was inactive: 16.7%.

With `O=C(NCCCN1CCOCC1)c1sc2cc([N+](=O)[O-])ccc2c1Cl` as the compound, how does the inhibition read?
Its inhibition is active: 67.7%.

`COc1ccc(C2CC(c3ccccc3)=NN2c2ccc(N)cc2)cc1` (configuration not stated) was tested. Which inhibition did it give?
Its inhibition is inconclusive: 56.8%.

For `NC(=S)n1[nH]c(-c2ccc([N+](=O)[O-])cc2)c(N=Nc2ccc(O)cc2)c1=O`, which inhibition is on record?
The inhibition was inactive: -5.9%.

For `CCOc1ccc(NC(=S)Nc2cccc3cnccc23)cc1`, which inhibition is on record?
The inhibition was inactive: 27%.

With `C/C(=N\O)C(C)(C)Nc1ccc(Cl)cc1` as the compound, how does the inhibition read?
Its inhibition is inconclusive: 81.2%.

How did the inhibition turn out when `O=C(O)CCCC(=O)N1CCOCCOCCOCCOCC1` was run?
Its inhibition is inconclusive: 50.5%.

Which inhibition does the source give for `COc1ccc(-c2nn(-c3ccccc3)cc2/C=C(\C#N)S(=O)(=O)c2ccccc2)cc1OC` here?
Its inhibition is inconclusive: 58.1%.

For `Nc1ccc(C(=O)OCC(=O)Nc2ccc([N+](=O)[O-])cc2C(F)(F)F)cc1`, which inhibition is on record?
Its inhibition is inconclusive: 68.1%.

For `O=[N+]([O-])c1c(NCCO)cc(N2CCN(Cc3ccc4c(c3)OCO4)CC2)c2nonc12`, which inhibition is on record?
Its inhibition is inconclusive: 69.7%.

How did the inhibition turn out when `Cn1cccc1C(C#N)(CC#N)c1cccc(F)c1C#N` (configuration not stated) was run?
Its inhibition is inactive: 14.3%.

With `O=C(COc1nsnc1N1CCOCC1)Nc1ccccc1Cl` as the compound, how does the inhibition read?
Its inhibition is inconclusive: 50.7%.

How did the inhibition turn out when `Cc1ccc(NC(=S)NCc2ccc(Cl)cc2)c(OC(F)F)c1` was run?
The inhibition was inconclusive: 67.5%.

`COc1ccc(/C=C/C(=O)OCC(=O)c2ccc3c(c2)NC(=O)CO3)c(OC)c1` was tested. Which inhibition did it give?
Its inhibition is inconclusive: 54.8%.

With `Cc1sc2nc(CSc3nc4ccccc4c(=O)n3CCCN3CCOCC3)[nH]c(=O)c2c1C` as the compound, how does the inhibition read?
The inhibition was inconclusive: 72.4%.

For `O=C(CCS(=O)(=O)c1ccccc1)Nc1ccc(-c2nc3ccccc3s2)c(O)c1`, which inhibition is on record?
Its inhibition is inconclusive: 64%.

For `O=C1CCSc2cccc3cccc(c23)N1`, which inhibition is on record?
The inhibition was inconclusive: 86.4%.

`COc1ccc(/C=C/C(=O)N/C(=C\c2ccco2)C(=O)NCCc2nc3ccccc3[nH]2)cc1` was tested. Which inhibition did it give?
The inhibition was inactive: 4.5%.

With `Oc1ccc(Br)cc1CNc1cnc2ccccc2c1` as the compound, how does the inhibition read?
Its inhibition is inactive: 13.6%.

How did the inhibition turn out when `CCOC(=O)Cn1c(=O)oc2cc(S(=O)(=O)NC(C)c3ccccc3)ccc21` (configuration not stated) was run?
Its inhibition is inconclusive: 53.9%.

With `COc1cc(/C=C2\SC(=N)N(c3ccc4c(c3)OCO4)C2=O)cc(OC)c1O` as the compound, how does the inhibition read?
Its inhibition is inactive: -8.5%.

For `O=C(COn1nnc2ccc(Cl)cc21)Nc1ccc(F)cc1`, which inhibition is on record?
The inhibition was inconclusive: 78.6%.

How did the inhibition turn out when `O=C(CN1C2CCCC1CC(NC(=O)c1ccccc1)C2)Nc1ccccc1` (configuration not stated) was run?
Its inhibition is inactive: 8.3%.

Which inhibition does the source give for `Cc1ccccc1NCN1C(=O)C2C3C=CC(C3)C2C1=O` (configuration not stated) here?
The inhibition was inconclusive: 62.7%.

How did the inhibition turn out when `CCOC(=O)C1(CCOc2ccccc2)CCN(Cc2cc(OC)ccc2OC)CC1` was run?
The inhibition was inconclusive: 54.4%.

`Cc1cc2cc(CNC(=O)c3ccc4c(c3)OCO4)ccc2n1C` was tested. Which inhibition did it give?
Its inhibition is inconclusive: 50.9%.

How did the inhibition turn out when `COc1c2ccoc2nc2c(OC)c(OCC(O)C(C)(C)O)ccc12` (configuration not stated) was run?
The inhibition was inconclusive: 51%.

How did the inhibition turn out when `CCc1ccccc1NC(=O)CCNS(=O)(=O)c1ccc2c(c1)CCC(=O)N2` was run?
The inhibition was inconclusive: 81.9%.

Which inhibition does the source give for `COc1ccc(C2=NN(c3ccc(C(=O)O)cc3)C(c3ccc(OC)c(OC)c3)C2)cc1` (configuration not stated) here?
The inhibition was inconclusive: 58.4%.

For `CCOC(=O)C1=C(C)NC(=O)NC1c1ccc(Cl)cc1Cl` (configuration not stated), which inhibition is on record?
Its inhibition is inactive: -3.7%.

Which inhibition does the source give for `CCN(Cc1ccccc1)c1ccc(/C=N/NC(=O)c2cccc(S(=O)(=O)N3CCOCC3)c2)cc1` here?
The inhibition was inconclusive: 66.4%.

Which inhibition does the source give for `O=C(CCN1C(=O)c2ccccc2C1=O)C1=NN[C@@H]2C(=O)N(c3ccc(F)cc3)C(=O)[C@H]12` here?
Its inhibition is inconclusive: 64.3%.

With `COc1cccc(C(=O)Nc2ccc(-c3nc4ccccc4o3)c(O)c2)c1` as the compound, how does the inhibition read?
The inhibition was inconclusive: 52.3%.

For `CC1=NN(C(N)=S)C(=O)C1N=Nc1c(Cl)cc([N+](=O)[O-])cc1Cl` (configuration not stated), which inhibition is on record?
Its inhibition is inactive: -6.1%.

With `CCc1ccc(CN2CCC(n3nccc3NC(=O)c3ccc4c(c3)OCO4)CC2)cc1` as the compound, how does the inhibition read?
Its inhibition is inactive: 2.8%.
